Results as given in ChEMBL document CHEMBL1772991, “Synthesis and structure-activity relationship of tricyclic carboxylic acids as novel anti-histamines” (Bioorg Med Chem, 2011).

Columns and labels:
[1] = species on record: Mus musculus; assay: animal or person; assay type: functional; conditions: ddY, po
[2] = Permeability from apical to basolateral side of human Caco2 cells after 120 mins; conditions: Caco-2
[3] = species on record: Homo sapiens; assay: Ratio of IC50 for human adrenergic alpha1 to IC50 for human histamine H1 receptor

Cn1c(N2CCN(CCCN3c4ccccc4COc4ccc(C(=O)O)cc43)CC2)cc(=O)n(C)c1=O
ED70 [1]: 187 mg/kg | Papp A→B at 2 h [2]: 7.6 ×10⁻⁶ cm/s | Ratio IC50 [3]: > 240
